Experimental data as given in PubChem BioAssay AID493014 (National Center for Advancing Translational Sciences (NCATS), 2011).
Some of the results follow. The main result of the screen is listed elsewhere. These columns were measured beside it and carry no call. Most of these compounds were active or inconclusive in the main read-out, so they are no random draw. The note in brackets gives the kind of curve behind each potency; many fits are weak.

Test: qHTS Assay to Find Inhibitors of Chronic Active B-Cell Receptor Signaling
Conditions: ABC-DLBCL IkBa-CBG/CBR reporter, luminescence ratio (green luciferase fused to IkBa over red control in TMD8 lymphoma cells), 4 h
Procedure, shortened: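 Doxycycline induced both beetle luciferases in TMD8 lymphoma cells; IKK-driven degradation limits the IkappaBalpha-fused green signal, while red luminescence normalises for cell number and nonspecific effects. Compounds tested up to 46 uM, 4 hrs.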

[1] = measured here: CBR red luminescence, cell number
[2] = measured here: IkBa-CBG green luminescence

CC(=O)[C@@H]1[C@@H]2C(=O)N(Cc3ccccc3)C(=O)[C@@H]2C2c3ccccc3C=CN21 (some centres not stated)
AC50 [1]: 28.2 µM [falling, partial curve, poor fit]

CCc1ccc(-c2ccc3nnc(SCC(=O)Nc4cccc(C(C)=O)c4)n3n2)cc1
AC50 [1]: 5.62 µM [rising, single point]

O=C(/C=C/c1ccccc1)NC(=S)Nc1cccnc1
AC50 [1]: 10 µM [rising, partial curve, poor fit]

CSc1ccc(CNc2nc3ccccc3n3cnnc23)cc1
AC50 [1]: 0.708 µM [rising, full curve, poor fit]

CCOP(=O)(OCC)C(NCc1ccccc1)c1ccc(Br)cc1 (configuration not stated)
AC50 [1]: 14.6 µM [falling, single point]

COc1ccc(S(=O)(=O)N2CCOCC2)cc1NC(=O)/C=C/c1ccc(F)cc1
AC50 [1]: 1.84 µM [rising, partial curve, poor fit] | AC50 [2]: 18.4 µM [falling, partial curve, poor fit]

CN(C)CCNC=C(C(=O)Nc1ccc(Cl)cc1Cl)C(=O)Nc1ccc(Cl)cc1Cl
AC50 [1]: 16.4 µM [rising, partial curve, poor fit]

CCCNC(=O)Cn1c(=O)cc(C)c2c(C)nn(-c3cccc(F)c3)c21
AC50 [1]: 20 µM [falling, partial curve, poor fit]

O=C(NCCN1C(=O)CSC1=O)C1CC(=O)N(c2ccccc2)C1 (configuration not stated)
AC50 [1]: 2.91 µM [rising, single point]

NNc1nc(N)c2c(n1)-c1ccccc1CC21CCCC1
AC50 [1]: 9.2 µM [falling, partial curve]

COc1ccc2cc(C(=O)NCc3ccccc3)c(=Nc3ccc(C(=O)O)cc3)oc2c1
AC50 [1]: 0.447 µM [falling, full curve, poor fit]

CN(CC(=O)Nc1ccc(S(=O)(=O)N2CCCC2)cc1)CC(=O)Nc1ccc(F)c(F)c1F
AC50 [1]: 17.8 µM [falling, partial curve, poor fit]

COc1ccccc1NC(=O)C1C2C=CC(O2)C1C(=O)O (configuration not stated)
AC50 [1]: 35.5 µM [falling, single point]

COc1ccc(CC(=S)NCCc2ccccc2)cc1
AC50 [1]: 7.08 µM [rising, full curve, poor fit]

CC(NC(=O)C1CCCN1S(=O)(=O)c1ccc2c(c1)n(C)c(=O)c(=O)n2C)c1ccccc1 (configuration not stated)
AC50 [1]: 35.5 µM [rising, single point]

O=C(Cn1ncc2c1-c1ccccc1OC2)Nc1nc2ccccc2s1
AC50 [1]: 15.8 µM [falling, single point]

COCCn1c(=S)[nH]c2cc(C(=O)NCC3CCCO3)ccc2c1=O (configuration not stated)
AC50 [1]: 2.06 µM [falling, full curve, poor fit]

COc1ccc2c(C)c(C(=O)N3CCN(Cc4ccccc4)CC3)oc2c1
AC50 [1]: 12.6 µM [falling, single point]

COc1ccc(CNC(=O)C(C)OC(=O)c2cccn2C)cc1 (configuration not stated)
AC50 [1]: 15.8 µM [rising, single point]

CCC(=O)Nc1nc2c(OC)ccc(C)c2s1
AC50 [1]: 1.3 µM [falling, full curve, poor fit]

Nc1nonc1C(=O)NCCNCc1cc(Br)ccc1OCc1ccccc1F
AC50 [1]: 29.1 µM [falling, single point]

Fc1cccc(CSc2nc(NCCc3ccccc3)c3ccccc3n2)c1
AC50 [1]: 35.5 µM [rising, single point]

COc1cc(CNC(C)c2ccccc2)cc(Cl)c1OCC(=O)Nc1ccccc1 (configuration not stated)
AC50 [1]: 22.4 µM [falling, single point]

CCOC(=O)N1CCC(N2Cc3cccc(C(=O)Nc4cc(F)ccc4F)c3C2=O)CC1
AC50 [1]: 4.11 µM [falling, single point]

COc1cccc2cc(C(=O)NC(C)C3CCCO3)c(=O)oc12 (configuration not stated)
AC50 [1]: 14.6 µM [falling, single point]

CCOC(=O)CNC(=O)CCc1nnc2ccc(N3CCC(C)CC3)nn12
AC50 [1]: 0.631 µM [rising, full curve, poor fit]

NC(=O)c1cc2c3ccccc3ccn2c1-c1ccccc1
AC50 [1]: 11.2 µM [falling, partial curve]

Cc1ccc(S(N)(=O)=O)cc1NC(=O)/C=C/c1ccc2c(c1)OCO2
AC50 [1]: 12.6 µM [falling, single point]

N#C/C(=C\c1ccc[nH]1)C(=O)NC1CC1
AC50 [1]: 29.1 µM [falling, single point]

Cc1ccc2cccc(NC(=S)NC(=O)c3c(Br)cnn3C)c2n1
AC50 [1]: 29.1 µM [falling, single point]

Cc1ccc(-c2cc(C(=O)N(C)Cc3cnn(C)c3C)c3cc(Br)ccc3n2)cc1
AC50 [1]: 32.6 µM [falling, single point]

c1ccc(-c2nc(NCCCn3ccnc3)c3ccccc3n2)cc1
AC50 [1]: 11.2 µM [falling, partial curve] | AC50 [2]: 12.6 µM [rising, partial curve, poor fit]

N#CC1=C(N)SC(N)=C(C#N)C1CCc1ccccc1
AC50 [1]: 0.82 µM [rising, partial curve, poor fit]

CSc1nc2ccccc2cc1/C=C(\C#N)c1ccccc1
AC50 [1]: 3.55 µM [rising, partial curve, poor fit]

CNC(=O)c1ccccc1S(=O)c1ccccc1COC(C)=O (configuration not stated)
AC50 [1]: 35.5 µM [rising, single point]

CC(C)Nc1ncnc2ccc(Br)cc12
AC50 [1]: 11.6 µM [falling, partial curve]

O=C(Nc1ncc(Cc2ccc(SC(F)F)cc2)s1)c1ccc(OC(F)F)cc1
AC50 [1]: 1.03 µM [rising, full curve, poor fit] | AC50 [2]: 1.3 µM [falling, full curve]

CNC(=O)N(O)C1N(/N=C/c2ccc(SC)cc2)C(=S)SC1(C)C (configuration not stated)
AC50 [1]: 35.5 µM [rising, partial curve, poor fit]

COc1ccc(CN(C)C(=O)Cn2cnc3c(NCc4ccccc4)ncnc32)cc1OC
AC50 [1]: 7.31 µM [rising, partial curve] | AC50 [2]: 11.6 µM [falling, partial curve]

Cc1ccc(S(=O)(=O)N(Cc2ccc(F)cc2)C(=O)N2CCN(C)CC2)cc1
AC50 [1]: 0.411 µM [rising, partial curve, poor fit]

Cc1cc(C(=O)NCc2ccco2)c2ccccc2n1
AC50 [1]: 14.1 µM [falling, partial curve, poor fit]

O=c1c2ccccc2c(C=Nc2cccc(S(=O)(=O)NCc3ccco3)c2)c(O)n1-c1ccc(Cl)cn1
AC50 [1]: 3.66 µM [rising, full curve, poor fit]

Cc1cc(=O)[nH]c2n[nH]c(-c3ccccc3)c12
AC50 [1]: 35.5 µM [falling, single point]

NC(=O)c1ccsc1NC(=O)COc1ccccc1
AC50 [1]: 3.66 µM [falling, partial curve, poor fit]

Cc1c(C(=O)NCCN2CCOCC2)oc2ccc(Br)cc12
AC50 [1]: 5.17 µM [rising, partial curve, poor fit]

Cc1ccc(CSCC(=O)Nc2ccccc2C(=O)O)cc1
AC50 [1]: 22.4 µM [falling, single point]

O=C(NNC(=O)c1ccccc1O)c1ccc(Cl)cc1
AC50 [1]: 2.82 µM [falling, partial curve, poor fit]

C/C(=N\NC(=O)C1COc2ccccc2O1)c1ccc(Cl)s1 (configuration not stated)
AC50 [1]: 3.16 µM [rising, full curve]

O=C(c1cc(COc2cccc3cnccc23)on1)N1CCC(c2ccccc2Cl)C1 (configuration not stated)
AC50 [1]: 17.8 µM [falling, partial curve, poor fit]

Cc1cccc(C(=O)NC2C(=O)NNC2c2ccc(Cl)cc2)c1 (configuration not stated)
AC50 [1]: 14.1 µM [falling, partial curve, poor fit]

CCCN1CCC(=NNC(=O)c2ccc(Br)o2)CC1
AC50 [1]: 35.5 µM [falling, single point]

CCCCCNCC(=O)Nc1cccc(C(=O)Nc2cccc(C(F)(F)F)c2)c1
AC50 [1]: 6.31 µM [falling, full curve, poor fit]

Cc1ccc(NC(=O)C2CC(=O)Nc3ncnn32)cc1Cl (configuration not stated)
AC50 [1]: 10 µM [falling, partial curve, poor fit]

C=CCNC(=S)NNC(=O)c1ccco1
AC50 [1]: 14.1 µM [rising, partial curve, poor fit]

CCc1nnc(NS(=O)(=O)c2ccc(NC(=S)NC(=O)/C=C/c3cccs3)cc2)s1
AC50 [1]: 4.47 µM [falling, partial curve, poor fit]

CC(=O)Nc1ccc(N2CCOCC2)c(Cl)c1
AC50 [1]: 35.5 µM [rising, single point]

O=C(O)c1ccc2c(c1)C(=O)N(Cc1ccccc1)C2=O
AC50 [1]: 29.1 µM [rising, single point]

CCO[C@H]1OC(C(=O)NCc2nc3ccccc3[nH]2)=C[C@@H](C2CC2)[C@@H]1CCCO
AC50 [1]: 25.1 µM [rising, partial curve, poor fit] | AC50 [2]: 12.6 µM [falling, partial curve, poor fit]

COC(=O)c1cc(NS(=O)(=O)c2cccs2)cc(NS(=O)(=O)c2cccs2)c1
AC50 [1]: 16.4 µM [falling, partial curve, poor fit]

NNc1nc2c(-c3ccc(F)cc3)nnn2c2ccccc12
AC50 [1]: 0.0891 µM [falling, full curve]

CCN(CC)S(=O)(=O)c1cccc(NC(=O)COC(=O)C2=COCCO2)c1
AC50 [1]: 32.6 µM [falling, single point]

CCN1C(=O)CC(c2ccco2)Sc2ccccc21 (configuration not stated)
AC50 [1]: 9.2 µM [rising, partial curve, poor fit]
